Experimental data: PubChem BioAssay AID504791 (Drosophila RNAi Screening Center, 2011)
Assay: 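Factors in Argonaute-based small RNA production and activity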 (primary screen). Cell system: Drosophila S2-derived reporter cells. Reagents: long dsRNA against Drosophila genes, about 150-250 ng dsRNA per well (siRNA assay); about 80-120 ng (miRNA assay). Time to read-out: about 5 days (siRNA assay); about 4 days (miRNA assay). Conditions: copper sulfate induction of reporters: 25 µM (siRNA assay); 200 mM stated (miRNA assay), 1-2 days before reading. Detection: 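Per-well ratio of Renilla over firefly light, expressed relative to that plate's average ratio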. Direction: siRNA reporter hit score: higher = 3 marks a strong hit with raised ratio; -3 a strong hit with lowered ratio. Rule for the call: 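a well was a first-pass pick when its plate-scaled ratio rose above 1.5 (siRNA assay) or 1.6 (miRNA assay), or dropped below 0.6; a gene counted only if two separate dsRNAs agreed on retest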.
The screen tested about 23,000 reagents; below is an unselected part of those that have a named target and a result. Of all reagents, 199 (0.86%) are marked active. 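Plate-scaled ratios behind the calls are not deposited; printed light signals are raw; many rows marked increased or decreased are still called inactive.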 Unmarked entries are inactive. Reagents against one gene are numbered here. Not all columns of the deposit are shown.

gene | reagent no. | siRNA reporter hit score | miRNA reporter change | stable assay Renilla, run 1 (luminescence)
ppk8 | 1 | – | – | 8475
stw | 1 | – | – | 5739
stw | 2 | – | – | 5955
stw | 3 | – | – | 5104
raskol | 1 | – | – | 4812
raskol | 2 | – | – | 5894
raskol | 3 | – | – | 6283
raskol | 4 | – | – | 3979
raskol | 5 | – | – | 9463
CG10428 | 1 | – | – | 27543
CG14568 | 1 | – | – | 5779
CG17190 | 1 | – | – | 7114
CycA | 1 | – | – | 3011
CycA | 2 | – | – | 5691
S-Lap3 | 1 | – | – | 7524
Snx27 | 1 | – | – | 5954
Snx27 | 2 | – | – | 5407
Snx27 | 3 | – | – | 5711
mRpL24 | 1 | – | – | 11571
Mnat9 | 1 | – | – | 5527
Syt12 | 1 | – | – | 4471
CG1504 | 1 | – | – | 5368
CG4483 | 1 | – | – | 3919
Vha36-3 | 1 | – | – | 6822
ND-15 | 1 | – | – | 10408
Rh6 | 1 | – | – | 7242
CG1113 | 1 | – | – | 5679
Gld2 | 1 | – | – | 5327
Gld2 | 2 | – | – | 4447
Rfx | 1 | – | – | 7330
CG15084 | 1 | – | – | 5216
CG15084 | 2 | – | – | 8962
mfr | 1 | – | – | 6246
blow | 1 | – | – | 8616
Pgm2a | 1 | – | – | 7346
CG12480 | 1 | – | – | 5628
mor | 1 | 3 | – | 5966
CG34028 | 1 | – | – | 5424
beat-IIIa | 1 | – | – | 5219
beat-IIIa | 2 | – | – | 4579
beat-IIIa | 3 | – | – | 8091
eIF3g1 | 1 | – | reporter ratio lowered past the hit cutoff | 5187
CG17707 | 1 | – | – | 5822
CG8777 | 1 | – | – | 8186
tun | 1 | – | – | 6731
tun | 2 | – | – | 9547
CG6938 | 1 | – | – | 6816

Single entries from the entries so far:
stw #1, stable assay Renilla, run 1 (luminescence) → 5739
For “stable assay Renilla, run 1 (luminescence)”, CG17190 has 7114
tun #1, stable assay Renilla, run 1 (luminescence): 6731
Entry of CG15084 #1 under “stable assay Renilla, run 1 (luminescence)”: 5216
CG10428, stable assay Renilla, run 1 (luminescence) = 27543
Result for Vha36-3 under “stable assay Renilla, run 1 (luminescence)”: 6822

Continued.
gene | reagent no. | siRNA reporter hit score | miRNA reporter change | stable assay Renilla, run 1 (luminescence)
Teh4 | 1 | – | – | 5351
EbpII | 1 | – | – | 6726
EbpII | 2 | – | – | 3283
CG34217 | 1 | – | – | 5278
Son | 1 | – | – | 5656
Tom7 | 1 | – | – | 5407
Tom7 | 2 | – | – | 6231
ccb | 1 | – | – | 6771
CG12279 | 1 | – | – | 6200
tko | 1 | – | reporter ratio lowered past the hit cutoff | 5346
CG34244 | 1 | – | – | 5611
Ir94f | 1 | – | – | 6406
CG31111 | 1 | – | – | 8839
CR9337 | 1 | – | – | 2.06e5
CG2082 | 1 | – | – | 7498
danr | 1 | – | – | 8354
CR33319 | 1 | – | – | 3583
LanA | 1 | – | – | 7214
CG6654 | 1 | – | – | 8699
KdelR | 1 | – | – | 23310
Hira | 1 | – | – | 5778
VhaAC39-2 | 1 | – | – | 7243
Vps11 | 1 | – | – | 5819
Vps11 | 2 | – | – | 10006
CG31550 | 1 | – | – | 6064
CG31550 | 2 | – | – | 7562
CG31156 | 1 | – | – | 8870
CG31156 | 2 | – | – | 7326
CG6695 | 1 | – | – | 8788
CARPA | 1 | – | – | 5898
CARPA | 2 | – | – | 9341
Tdc2 | 1 | – | – | 7062
CG15642 | 1 | – | – | 5407
Zip42C.1 | 1 | – | – | 6718
CG12716 | 1 | – | – | 5147
CG13305 | 1 | – | reporter ratio lowered past the hit cutoff | 5296
